Results from publication doi:10.1101/2022.06.27.497840 (bioRxiv, 2022).
These are yes or no findings as the source states them, for the method shown. For some of these results: Binding seen in cells or lysates may run through a third protein. Some entries that bind do so weakly or less than the wild type. Sequences can lack the tags named with a protein. Each block holds one molecule with its values, some of them ahead of it.

By UniProt entry, the sequences of proteins in these tests, tags left out.
UniProt P51979: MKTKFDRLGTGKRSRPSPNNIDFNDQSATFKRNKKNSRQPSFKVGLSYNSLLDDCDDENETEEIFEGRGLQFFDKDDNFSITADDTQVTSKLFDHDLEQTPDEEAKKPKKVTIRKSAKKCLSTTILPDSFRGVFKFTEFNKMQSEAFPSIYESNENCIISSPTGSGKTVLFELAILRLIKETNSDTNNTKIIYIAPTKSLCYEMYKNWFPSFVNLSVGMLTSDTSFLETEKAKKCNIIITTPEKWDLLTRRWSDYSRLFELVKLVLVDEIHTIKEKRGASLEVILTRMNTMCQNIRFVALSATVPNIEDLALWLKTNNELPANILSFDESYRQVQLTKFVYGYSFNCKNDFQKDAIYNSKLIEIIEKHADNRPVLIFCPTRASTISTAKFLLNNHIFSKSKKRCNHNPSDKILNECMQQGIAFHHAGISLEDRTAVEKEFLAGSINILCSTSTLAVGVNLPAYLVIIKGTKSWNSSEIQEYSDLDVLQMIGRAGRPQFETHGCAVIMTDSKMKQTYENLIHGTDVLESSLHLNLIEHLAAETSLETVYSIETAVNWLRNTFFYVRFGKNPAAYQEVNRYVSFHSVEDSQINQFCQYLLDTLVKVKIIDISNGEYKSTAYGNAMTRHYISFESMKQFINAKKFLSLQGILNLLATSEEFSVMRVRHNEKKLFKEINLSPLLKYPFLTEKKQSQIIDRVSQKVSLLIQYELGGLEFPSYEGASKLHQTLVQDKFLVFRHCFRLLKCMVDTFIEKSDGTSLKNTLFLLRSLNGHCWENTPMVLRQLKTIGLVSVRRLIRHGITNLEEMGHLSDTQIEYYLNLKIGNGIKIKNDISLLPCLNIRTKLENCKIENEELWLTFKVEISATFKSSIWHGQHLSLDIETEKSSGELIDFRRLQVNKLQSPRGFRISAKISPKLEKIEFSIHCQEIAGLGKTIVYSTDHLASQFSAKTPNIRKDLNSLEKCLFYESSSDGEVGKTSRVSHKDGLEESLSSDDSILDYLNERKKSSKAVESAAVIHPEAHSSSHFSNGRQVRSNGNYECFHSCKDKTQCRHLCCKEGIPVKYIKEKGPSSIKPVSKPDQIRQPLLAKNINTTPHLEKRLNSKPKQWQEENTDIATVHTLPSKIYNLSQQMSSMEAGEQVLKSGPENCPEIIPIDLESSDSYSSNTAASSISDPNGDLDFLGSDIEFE

Assays:
[1] = target: T1, Rmi1 (yeast two-hybrid fusion) (Saccharomyces cerevisiae (SK1)) (UniProt Q02685); experiment: two-hybrid
T1 sequence: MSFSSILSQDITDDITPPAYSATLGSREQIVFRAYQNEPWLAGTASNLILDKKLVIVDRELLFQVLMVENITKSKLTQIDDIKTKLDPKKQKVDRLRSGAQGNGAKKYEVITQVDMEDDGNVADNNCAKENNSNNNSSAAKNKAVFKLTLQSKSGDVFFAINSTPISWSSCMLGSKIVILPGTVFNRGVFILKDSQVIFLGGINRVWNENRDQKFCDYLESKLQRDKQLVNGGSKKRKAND

[2] = target: T2, Top3 (yeast two-hybrid fusion) (Saccharomyces cerevisiae (SK1)) (UniProt P13099); experiment: two-hybrid
T2 sequence: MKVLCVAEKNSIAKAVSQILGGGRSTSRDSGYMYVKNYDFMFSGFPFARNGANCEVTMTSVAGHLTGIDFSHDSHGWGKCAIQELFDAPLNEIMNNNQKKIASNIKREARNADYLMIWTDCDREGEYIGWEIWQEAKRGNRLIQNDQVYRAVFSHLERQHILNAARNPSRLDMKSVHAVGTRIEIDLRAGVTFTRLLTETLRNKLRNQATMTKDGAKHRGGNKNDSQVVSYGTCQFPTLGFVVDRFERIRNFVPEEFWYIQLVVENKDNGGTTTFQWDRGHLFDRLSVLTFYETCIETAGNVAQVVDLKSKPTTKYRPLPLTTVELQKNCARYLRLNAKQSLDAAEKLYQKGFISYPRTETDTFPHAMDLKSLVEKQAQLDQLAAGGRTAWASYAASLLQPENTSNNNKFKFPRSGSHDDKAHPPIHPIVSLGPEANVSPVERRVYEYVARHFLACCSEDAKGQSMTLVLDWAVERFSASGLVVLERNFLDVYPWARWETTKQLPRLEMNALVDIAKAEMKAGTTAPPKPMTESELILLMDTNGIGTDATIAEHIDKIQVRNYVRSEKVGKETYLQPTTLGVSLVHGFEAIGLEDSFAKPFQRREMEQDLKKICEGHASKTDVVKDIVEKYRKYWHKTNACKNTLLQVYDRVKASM

[3] = target: T3, HA-tagged Top3 (3 copies of HA, C-terminal) (Saccharomyces cerevisiae (SK1)) (UniProt P13099); experiment: co-IP
T3 sequence: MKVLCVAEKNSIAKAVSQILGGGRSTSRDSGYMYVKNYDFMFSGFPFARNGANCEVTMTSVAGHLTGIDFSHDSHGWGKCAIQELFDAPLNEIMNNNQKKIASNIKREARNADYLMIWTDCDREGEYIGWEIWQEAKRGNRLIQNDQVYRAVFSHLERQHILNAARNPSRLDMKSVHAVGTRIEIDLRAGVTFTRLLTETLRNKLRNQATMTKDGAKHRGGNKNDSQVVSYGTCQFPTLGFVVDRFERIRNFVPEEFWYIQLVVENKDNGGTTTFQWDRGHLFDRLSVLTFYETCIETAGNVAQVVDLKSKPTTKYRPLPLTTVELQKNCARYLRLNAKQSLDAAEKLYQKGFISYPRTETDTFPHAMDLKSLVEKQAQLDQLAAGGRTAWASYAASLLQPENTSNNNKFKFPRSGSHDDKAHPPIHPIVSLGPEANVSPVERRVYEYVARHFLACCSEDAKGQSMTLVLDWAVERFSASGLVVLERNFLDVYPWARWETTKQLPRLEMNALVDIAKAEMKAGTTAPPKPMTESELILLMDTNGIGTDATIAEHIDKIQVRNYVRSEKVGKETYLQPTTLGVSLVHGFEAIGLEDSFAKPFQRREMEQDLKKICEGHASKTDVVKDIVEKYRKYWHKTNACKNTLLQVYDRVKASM

[4] = target: T4, GST-Rmi1 (Saccharomyces cerevisiae (SK1)) (UniProt Q02685); experiment: co-purification
T4 sequence: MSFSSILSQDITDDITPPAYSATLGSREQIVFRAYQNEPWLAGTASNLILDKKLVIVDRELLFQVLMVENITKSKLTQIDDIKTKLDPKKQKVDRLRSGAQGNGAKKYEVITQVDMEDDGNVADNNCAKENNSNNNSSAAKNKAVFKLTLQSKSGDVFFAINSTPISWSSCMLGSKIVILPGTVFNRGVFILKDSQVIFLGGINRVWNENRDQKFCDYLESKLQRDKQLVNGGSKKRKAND

binding [1]: binds
binding [2]: binds
Molecule: Mer3 (yeast two-hybrid fusion) (from UniProt P51979 1-1187) (enzyme)

binding [3]: binds
Molecule: Myc-tagged Mer3 (9 copies of Myc, C-terminal) (from UniProt P51979 1-1187) (enzyme)

binding [4]: binds
B1: Top3 (untagged, subunit of the Top3/Rmi1 complex) (enzyme)
chain: MKVLCVAEKNSIAKAVSQILGGGRSTSRDSGYMYVKNYDFMFSGFPFARNGANCEVTMTSVAGHLTGIDFSHDSHGWGKCAIQELFDAPLNEIMNNNQKKIASNIKREARNADYLMIWTDCDREGEYIGWEIWQEAKRGNRLIQNDQVYRAVFSHLERQHILNAARNPSRLDMKSVHAVGTRIEIDLRAGVTFTRLLTETLRNKLRNQATMTKDGAKHRGGNKNDSQVVSYGTCQFPTLGFVVDRFERIRNFVPEEFWYIQLVVENKDNGGTTTFQWDRGHLFDRLSVLTFYETCIETAGNVAQVVDLKSKPTTKYRPLPLTTVELQKNCARYLRLNAKQSLDAAEKLYQKGFISYPRTETDTFPHAMDLKSLVEKQAQLDQLAAGGRTAWASYAASLLQPENTSNNNKFKFPRSGSHDDKAHPPIHPIVSLGPEANVSPVERRVYEYVARHFLACCSEDAKGQSMTLVLDWAVERFSASGLVVLERNFLDVYPWARWETTKQLPRLEMNALVDIAKAEMKAGTTAPPKPMTESELILLMDTNGIGTDATIAEHIDKIQVRNYVRSEKVGKETYLQPTTLGVSLVHGFEAIGLEDSFAKPFQRREMEQDLKKICEGHASKTDVVKDIVEKYRKYWHKTNACKNTLLQVYDRVKASM
